No constants are given. Whether binding was seen depends on the method and setting. Binding seen in cells or lysates may run through a third protein. Binding calls can cover weak binding; strength is not graded here.
How the values were obtained:
[1] = biological target: IMPDH2 lacking 101-134 aa (shRNA-resistant cDNA) (human) (UniProt P12268); assay: co-IP; MDA-MB-231 cells depleted of endogenous IMPDH2 by shRNA and transduced with shRNA-resistant wild-type or deletion-mutant IMPDH2; immunoprecipitation and immunoblotting
[2] = biological target: IMPDH2 lacking 153-225 aa (shRNA-resistant cDNA) (human) (UniProt P12268); assay: as above

Chains of the proteins cited; added tags and fusions are not shown.
UniProt P49915: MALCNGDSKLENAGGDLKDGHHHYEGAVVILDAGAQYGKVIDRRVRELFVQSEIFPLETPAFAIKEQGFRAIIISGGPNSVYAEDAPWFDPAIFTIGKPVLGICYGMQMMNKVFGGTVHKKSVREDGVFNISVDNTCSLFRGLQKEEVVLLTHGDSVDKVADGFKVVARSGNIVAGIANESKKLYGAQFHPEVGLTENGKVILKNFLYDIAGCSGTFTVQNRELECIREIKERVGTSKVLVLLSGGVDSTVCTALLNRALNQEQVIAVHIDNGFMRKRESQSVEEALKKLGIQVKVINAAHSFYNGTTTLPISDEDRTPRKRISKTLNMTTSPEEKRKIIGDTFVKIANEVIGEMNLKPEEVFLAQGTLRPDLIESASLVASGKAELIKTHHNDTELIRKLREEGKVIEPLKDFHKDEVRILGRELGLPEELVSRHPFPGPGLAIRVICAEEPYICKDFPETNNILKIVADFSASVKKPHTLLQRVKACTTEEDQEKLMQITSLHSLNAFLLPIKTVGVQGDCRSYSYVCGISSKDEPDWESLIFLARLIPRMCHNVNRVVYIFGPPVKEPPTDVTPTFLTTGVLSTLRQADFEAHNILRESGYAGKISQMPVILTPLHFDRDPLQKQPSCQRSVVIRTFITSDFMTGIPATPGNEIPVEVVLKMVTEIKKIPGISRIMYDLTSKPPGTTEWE

## guanosine monophosphate synthase (GMPS), endogenous (from UniProt P49915 1-693) (enzyme)
[1]
  binding: binds
[2]
  binding: binds
